Reference: the supplement of paper PMC4604168 (melanoma cell lines)
Some of the results follow. Single values are uncertain, as repeats are few or missing.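 Imaging used 1,536-well plates; nuclei positive for cleaved PARP by antibody were divided by total DNA-stained nuclei to yield the apoptosis fraction. Doses for screening kept most cells viable, and cell lines differ markedly in resting and induced cleaved-PARP levels.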

How the values were obtained:
Assay in all cases: cleaved PARP positive nuclei fraction relative to DMSO control; melanoma cells; higher = more apoptosis
Settings in all cases: library dose: low library concentration; 72 h
[1] = tested on: COLO792
[2] = tested on: COLO800
[3] = tested on: COLO829
[4] = tested on: G361
[5] = tested on: IPC-298
[6] = tested on: IST-MEL1
[7] = tested on: LB2518-MEL
[8] = tested on: LOXIMVI
[9] = tested on: MEL-HO

SMILES	cleaved PARP positive nuclei fraction [1] [%]	cleaved PARP positive nuclei fraction [2] [%]	cleaved PARP positive nuclei fraction [3] [%]	cleaved PARP positive nuclei fraction [4] [%]	cleaved PARP positive nuclei fraction [5] [%]	cleaved PARP positive nuclei fraction [6] [%]	cleaved PARP positive nuclei fraction [7] [%]	cleaved PARP positive nuclei fraction [8] [%]	cleaved PARP positive nuclei fraction [9] [%]
C[C@]12O[C@H](C[C@]1(O)CO)n1c3ccccc3c3c4c(c5c6ccccc6n2c5c31)CNC4=O [Lestaurtinib] + CN(C)S(=O)(=O)c1ccc2c(c1)/C(=C/c1cc3c([nH]1)CCCC3)C(=O)N2 [SU6656] (first compound 0.004 µM, partner dose 0.4 µM)	161	106	104	50.2	96.4	34.3	53.4	34.3	34
C[As](C)SC[C@H](NC(=O)CC[C@H](N)C(=O)O)C(=O)NCC(=O)O [Darinaparsin] + OCCn1cc(-c2cnc3nnn(Cc4ccc5ncccc5c4)c3n2)cn1 [PF04217903] (first compound 0.4 µM, partner dose 1 µM)	80.2	84.6	144	46.3	60.5	96.4	64.3	52.2	126
C[C@]12O[C@H](C[C@]1(O)CO)n1c3ccccc3c3c4c(c5c6ccccc6n2c5c31)CNC4=O [Lestaurtinib] + NC(=O)Nc1cc(-c2cccc(F)c2)sc1C(=O)N[C@H]1CCCNC1 [AZD7762] (first compound 0.004 µM, partner dose 0.02 µM)	176	71.6	73.7	49	86	93.4	91.8	21.7	52.5
C[C@]12O[C@H](C[C@]1(O)CO)n1c3ccccc3c3c4c(c5c6ccccc6n2c5c31)CNC4=O [Lestaurtinib] + OCCn1cc(-c2cnc3nnn(Cc4ccc5ncccc5c4)c3n2)cn1 [PF04217903] (first compound 0.004 µM, partner dose 1 µM)	105	107	145	73.5	45.3	45.4		98.5	257
C[As](C)SC[C@H](NC(=O)CC[C@H](N)C(=O)O)C(=O)NCC(=O)O [Darinaparsin] + O=C(O)c1ccc(-c2c[nH]c3ncc(-c4ccccc4)cc23)cc1C1CCCC1 [GSK650394] (first compound 0.4 µM, partner dose 0.16 µM)	67.1	65.8	66	152	122	136	64	94.4	291
Cn1cc(C2=C(c3cn(C4CCN(Cc5ccccn5)CC4)c4ccccc34)C(=O)NC2=O)c2ccccc21 [Enzastaurin] + CN(NC(=O)CC(=O)NN(C)C(=S)c1ccccc1)C(=S)c1ccccc1 [STA4783] (first compound 0.8 µM, partner dose 0.006 µM)	179	89.8	152	133	49	109	75.9	141	278
Clc1ccc(Nc2nnc(Cc3ccncc3)c3ccccc23)cc1 [vatalanib] + Cc1cc(SCc2sc(-c3ccc(C(F)(F)F)c(F)c3)nc2C)ccc1OCC(=O)O [GW0742] (first compound 2 µM, partner dose 2 µM)	83.6	148	74.9	191	84	134		66.3	
Cn1cc(C2=C(c3cn(C4CCN(Cc5ccccn5)CC4)c4ccccc34)C(=O)NC2=O)c2ccccc21 [Enzastaurin] + CC1(C)NC(=O)N(c2ccc([N+](=O)[O-])c(C(F)(F)F)c2)C1=O [nilutamide] (first compound 0.8 µM, partner dose 1 µM)	153	209	143	89.7	60.7	187	44.7	74.5	121
Cn1cc(C2=C(c3cn(C4CCN(Cc5ccccn5)CC4)c4ccccc34)C(=O)NC2=O)c2ccccc21 [Enzastaurin] + COc1cc2c(Oc3ccc4[nH]c(C)cc4c3F)ncnc2cc1OCCCN1CCCC1 [cediranib] (first compound 0.8 µM, partner dose 0.4 µM)	214	116	113	81.5	83.2	129	109	128	21.6
N.N.[Cl][Pt][Cl] [cisplatin] + NCC(=O)Nc1ccc(-n2nc(C(F)(F)F)cc2-c2ccc3c(ccc4ccccc43)c2)cc1 [OSU03012] (first compound 1.6 µM, partner dose 1 µM)	244	109	137	94.3	47.2	47.8		43.7	69.5
N.N.[Cl][Pt][Cl] [cisplatin] + CCN(CC)CCCCNc1ncc2cc(-c3cc(OC)cc(OC)c3)c(NC(=O)NC(C)(C)C)nc2n1 [PD173074] (first compound 1.6 µM, partner dose 0.1 µM)	99.2	67.3	47.9	116	46.3	17.9		52.1	
N.N.[Cl][Pt][Cl] [cisplatin] + CC1(C)NC(=O)N(c2ccc([N+](=O)[O-])c(C(F)(F)F)c2)C1=O [nilutamide] (first compound 1.6 µM, partner dose 1 µM)	234	89.9	127	66.5	82.8	122	98.8	28.9	50.6
C[As](C)SC[C@H](NC(=O)CC[C@H](N)C(=O)O)C(=O)NCC(=O)O [Darinaparsin] + CN(C)S(=O)(=O)c1ccc2c(c1)/C(=C/c1cc3c([nH]1)CCCC3)C(=O)N2 [SU6656] (first compound 0.4 µM, partner dose 0.4 µM)	86.7	152	77.7	140	21.8	65.7	95.8	26.7	64.8
C[As](C)SC[C@H](NC(=O)CC[C@H](N)C(=O)O)C(=O)NCC(=O)O [Darinaparsin] + Cc1cc(N2CCOCC2)cc2[nH]c(-c3c(NC[C@@H](O)c4cccc(Cl)c4)cc[nH]c3=O)nc12 [BMS536924] (first compound 0.4 µM, partner dose 0.2 µM)	92.3	152	208	90.2	137	33.3	102	62.5	72.3
C[As](C)SC[C@H](NC(=O)CC[C@H](N)C(=O)O)C(=O)NCC(=O)O [Darinaparsin] + Cc1ccc(NC(=O)c2cccc(N(C)C)c2)cc1NC(=O)c1ccc(O)cc1 [ZM336372] (first compound 0.4 µM, partner dose 2 µM)	29.1	49.4	70.7	110	60.6	62	99.9	184	31.6
C[As](C)SC[C@H](NC(=O)CC[C@H](N)C(=O)O)C(=O)NCC(=O)O [Darinaparsin] + CO[C@@H]1[C@H](N(C)C(=O)c2ccccc2)C[C@H]2O[C@]1(C)n1c3ccccc3c3c4c(c5c6ccccc6n2c5c31)C(=O)NC4 [Midostaurin] (first compound 0.4 µM, partner dose 0.08 µM)	255	53.5	113	143	290	111	63.1	91	124
C[C@]12O[C@H](C[C@]1(O)CO)n1c3ccccc3c3c4c(c5c6ccccc6n2c5c31)CNC4=O [Lestaurtinib] + O=C(Nc1cccc(Cl)c1)Nc1ncc(CCNc2ncnc3ccsc23)s1 [SNS314] (first compound 0.004 µM, partner dose 0.0008 µM)	99.9	55.3	66.9	36.5	42.3	150	181	124	133
C[As](C)SC[C@H](NC(=O)CC[C@H](N)C(=O)O)C(=O)NCC(=O)O [Darinaparsin] + CC(C)(C)c1cnc(CSc2cnc(NC(=O)C3CCNCC3)s2)o1 [SNS-032] (first compound 0.4 µM, partner dose 0.01 µM)	107	80.2	133	109	119	141	144	328	64.3
N.N.[Cl][Pt][Cl] [cisplatin] + Cc1ccc(NC(=O)c2cccc(N(C)C)c2)cc1NC(=O)c1ccc(O)cc1 [ZM336372] (first compound 1.6 µM, partner dose 2 µM)	94.6	65	79.7	42.8	58	148	156	120	70.4
CO[C@H]1C[C@@H]2CC[C@@H](C)[C@@](O)(O2)C(=O)C(=O)N2CCCC[C@H]2C(=O)O[C@H]([C@H](C)C[C@@H]2CC[C@@H](OCCO)[C@H](OC)C2)CC(=O)[C@H](C)/C=C(\C)[C@@H](O)[C@@H](OC)C(=O)[C@H](C)C[C@H](C)/C=C/C=C/C=C/1C [everolimus] + O=C(Oc1ccc([N+](=O)[O-])cc1)N1CCC(C(O)(c2ccc3c(c2)OCO3)c2ccc3c(c2)OCO3)CC1 [JZL184] (first compound 0.02 µM, partner dose 1 µM)	183	52	296	84.9	63.7	129		89.8	

Two neighbouring entries from above:
SMILES	cleaved PARP positive nuclei fraction [1] [%]	cleaved PARP positive nuclei fraction [2] [%]	cleaved PARP positive nuclei fraction [3] [%]	cleaved PARP positive nuclei fraction [4] [%]	cleaved PARP positive nuclei fraction [5] [%]	cleaved PARP positive nuclei fraction [6] [%]	cleaved PARP positive nuclei fraction [7] [%]	cleaved PARP positive nuclei fraction [8] [%]	cleaved PARP positive nuclei fraction [9] [%]
N.N.[Cl][Pt][Cl] [cisplatin] + NCC(=O)Nc1ccc(-n2nc(C(F)(F)F)cc2-c2ccc3c(ccc4ccccc43)c2)cc1 [OSU03012] (first compound 1.6 µM, partner dose 1 µM)	244	109	137	94.3	47.2	47.8		43.7	69.5
N.N.[Cl][Pt][Cl] [cisplatin] + CCN(CC)CCCCNc1ncc2cc(-c3cc(OC)cc(OC)c3)c(NC(=O)NC(C)(C)C)nc2n1 [PD173074] (first compound 1.6 µM, partner dose 0.1 µM)	99.2	67.3	47.9	116	46.3	17.9		52.1	
